Measurements from “University of Dundee, Small-Polar-MMV Screening Library” (2021), ChEMBL document CHEMBL3988442.

Values are the deposited “Percent Effect”, in %.
The controls that fix the scale are not given in the record; negative values are as filed.
The compounds are a random part of those screened.

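Growth of Mycobacterium tuberculosis over 4 days (cholesterol / DPPC medium with tyloxapol); the read-out is not stated. Compounds at 500 µM. The record gives no direction; compounds that gave an IC50 in retests scored well above the rest, so higher reads as more growth inhibition. About 18,000 compounds were tested under these conditions; 5% (about 900) showed 50% or more at least once.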

| # | compound | effect |
|---|---|---|
| 1 | `Cc1nc(=N)c(C)c(C)[nH]1` | -3.207 |
| 2 | `CO[C@@H]1CS(=O)(=O)[C@@H]2CNC[C@@H]21` | -0.8672 |
| 3 | `COCCn1ccnc1CN(C)[C@H]1COC[C@@H]1O` | -6.081 |
| 4 | `C1CC(N2CCOCC2)CCN1` | 0.4372 |
| 5 | `COC(=O)CNC(=O)c1nccc2ccccc12` | -1.984 |
| 6 | `N#Cc1c[nH]c(C(=O)NCCCNC2CCCCC2)c1` | -1.244 |
| 7 | `CN(Cc1cccnc1)CC(C)(CO)CO` | 18.85 |
| 8 | `CCc1nnc(SCC(=O)Nc2cc(C)nn2C)[nH]1` | -17.45 |
| 9 | `Cc1ccc(NC(=O)Cn2ncn(C)c2=O)c(C)c1` | -15.44 |
| 10 | `CC(C)c1cc(C(=O)NCCN(C)S(C)(=O)=O)no1` | -1.445 |
| 11 | `CCNS(=O)(=O)c1ccc(CC(=O)N(C)C)cc1` | 7.471 |
| 12 | `O=C(Cn1ccc(=O)[nH]c1=O)Nc1ccc(Br)cc1` | -5.199 |
| 13 | `O=C1CN(Cc2ccccc2)CC(=O)N1` | 3.472 |
| 14 | `C=C(C)CNC(=O)NCCC(=O)NC1CCCC1` | 1.552 |
| 15 | `COCC(C)CNc1cccc(S(=O)(=O)N(C)C)c1` (configuration not stated) | -8.204 |
| 16 | `CCN(CC)S(=O)(=O)c1cccc(NCC(=O)OC)c1` | -2.883 |
| 17 | `Cn1ccnc1CN(CCO)CC1CC1` | 1.502 |
| 18 | `O=C(Cc1ccccc1Cl)NC1CCCNC1` (configuration not stated) | 10.44 |
| 19 | `C[C@@H]1CN(C(=O)CN(C)Cc2ccccc2)C[C@]1(C)O` | -2.321 |
| 20 | `O=C(N1CCCCC1)N1CCCC(c2nnc[nH]2)C1` (configuration not stated) | 10.61 |
| 21 | `NS(=O)(=O)CCC(F)(F)F` | -6.429 |
| 22 | `NCCC(=O)N1CCCC(CCc2ccc(F)cc2)C1` (configuration not stated) | 67.15 |
| 23 | `CNc1ncccc1C(=O)NCCS(=O)(=O)N(C)C` | 2.063 |
| 24 | `NC(=O)C1CCCCN1CC(=O)NC1CCCCC1` (configuration not stated) | -12.52 |
| 25 | `O=C(CC1CCCC1)Nc1ccc2c(c1)NC(=O)CO2` | -14.47 |
| 26 | `Cc1ccc(NC(=O)CCSCC(N)=O)c(C)c1` | -0.5784 |
| 27 | `CN(C)S(=O)(=O)c1csc(C(=O)N2CCOCC2)c1` | 1.084 |
| 28 | `COC(C(=O)NCC1(C)COC1)c1ccccc1` (configuration not stated) | -3.658 |
| 29 | `CC1(NC(=O)C2CCC2)CCS(=O)(=O)C1` (configuration not stated) | -7.721 |
| 30 | `c1coc(-c2ccncc2)c1` | -10.24 |
| 31 | `CNC(=O)Nc1ccc(N2CCOCC2)nc1` | -311.4 |
| 32 | `COCCN(C)CC(=O)N1C[C@@H](C)[C@](O)(C2CC2)C1` | -1.106 |
| 33 | `c1cc2nnnn2nc1N1CCCCC1` | -11.47 |
| 34 | `CS(=O)(=O)N(c1ccc(OCCN)cc1)S(C)(=O)=O` | 4.704 |
| 35 | `N#Cc1cncc(Br)c1` | 2.325 |
| 36 | `Cc1ccnc(NC(=O)CC(C)n2nc(C)nc2C)c1` (configuration not stated) | 8.005 |
| 37 | `Cc1onc(N)c1S(=O)(=O)NCc1ccccn1` | 0.5337 |
| 38 | `CCOCC(=O)NC(C)c1c(F)cccc1OC` (configuration not stated) | 74.98 |
| 39 | `CCNC(C)(C)C(=O)N(C)Cc1ccc(OC)c(F)c1` | -17.13 |
| 40 | `NC(=O)CN1CCN(C/C=C/c2ccccc2)CC1` | 15.65 |
| 41 | `CCCC(N)CNS(=O)(=O)c1ccc(C(C)=O)cc1` (configuration not stated) | 31.39 |
| 42 | `C[C@H](CO)N(C)C(=O)Cc1cccc(OC(F)(F)F)c1` | 3.367 |
| 43 | `CCSCCC(C)N` (configuration not stated) | -0.2645 |
| 44 | `CC(C)(C)OC(=O)NCC1CNCCCO1` (configuration not stated) | 15.8 |
| 45 | `NC1CN(c2ccncn2)C1` | 8.447 |
| 46 | `CCOc1ccc(NC(=O)NC2CCS(=O)(=O)C2)cc1` (configuration not stated) | 4.602 |
| 47 | `NC(=O)c1cnc(NC(=O)CCC2CCCO2)s1` (configuration not stated) | 3.173 |
| 48 | `O=C(Cn1cnc2ccccc2c1=O)N1CCCCC1` | -8.636 |

5 of the entries, repeated:

- COC(C(=O)NCC1(C)COC1)c1ccccc1 (configuration not stated) : -3.658%
- Cc1nc(=N)c(C)c(C)[nH]1 : -3.207%
- CNc1ncccc1C(=O)NCCS(=O)(=O)N(C)C : 2.063%
- COCCn1ccnc1CN(C)[C@H]1COC[C@@H]1O : -6.081%
- CCc1nnc(SCC(=O)Nc2cc(C)nn2C)[nH]1 : -17.45%